Measured data: PubChem BioAssay AID504795 (Drosophila RNAi Screening Center, 2011)

Test: 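Genes required for normal axon extension and glial cell shape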 (primary screen)
Cells: primary Drosophila neurons and glia
Reagents: long dsRNA against Drosophila genes, 250 ng dsRNA per well
Duration: one week
Measurement: 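Descriptive morphology terms assigned by visual inspection of live automated images of GFP-marked cells, taken one week after adding 250 ng dsRNA per well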
The reagents shown are a selection, not the whole library. 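Every listed dsRNA shows some phenotype; how reagents were selected for listing is not stated.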 The numbers tell different reagents against one gene apart. Names joined by + are all predicted targets of the reagent. No sequences are given here.

| target | reagent no. | phenotype seen, replicate 1 |
| --- | --- | --- |
| Inx7 | 1 | sheet-like cell extensions |
| Fam92 | 1 | abnormal cell clusters |
| CR33315 | 1 | axon bundles split apart |
| CG13814 (retired record) | 1 | too many neurite branches |
| Smyd4-2 | 1 | fewer cells |
| CG34210 | 1 | abnormal cell clusters |
| CG13766 | 1 | abnormal cell clusters |
| Hk | 1 | axon bundles split apart |
| Syx1A | 1 | sheet-like cell extensions |
| Ada2b | 1 | abnormal cell clusters |
| CG12078 | 1 | axon bundles split apart |
| Pxd | 1 | beaded; swollen axons |
| gammaCOP | 1 | axon bundles split apart |
| Rilpl | 1 | too many neurite branches |
| Vps60 | 1 | axon bundles split apart |
| D | 1 | axon bundles split apart |
| CG5455 | 1 | reduced axon outgrowth |
| eIF1 | 1 | too many neurite branches |
| Wdr92 | 1 | reduced axon outgrowth |
| tn | 1 | sheet-like cell extensions |
| Polr2H | 1 | axon bundles split apart |
| CG5516 | 1 | too many neurite branches |
| CG32532 | 1 | reduced axon outgrowth |

As entered above.
CG13766, phenotype seen, replicate 1 = abnormal cell clusters
For “phenotype seen, replicate 1”, Rilpl has too many neurite branches
Value for Inx7 under “phenotype seen, replicate 1”: sheet-like cell extensions
For “phenotype seen, replicate 1”, CG32532 reads reduced axon outgrowth

The list goes on.
| target | reagent no. | phenotype seen, replicate 1 |
| --- | --- | --- |
| Polr2J | 1 | too many neurite branches |
| CG30089 | 1 | fewer cells |
| CG30089 | 2 | fewer cells |
| mys | 1 | abnormal cell clusters |
| Dic4 | 1 | reduced axon outgrowth |
| fne | 1 | sheet-like cell extensions |
| CG2871 | 1 | axon bundles split apart |
| CG1738 | 1 | too many neurite branches |
| lbm | 1 | axon bundles split apart |
| mAChR-A | 1 | abnormal cell clusters |
| CG34112 | 1 | sheet-like cell extensions |
| hep | 1 | abnormal cell clusters |
| hep | 2 | abnormal cell clusters |
| CG30419 | 1 | abnormal cell clusters |
| CG10163 | 1 | beaded; swollen axons |
| CG31743 + CG34313 | 1 | axon bundles split apart |
| Arms | 1 | abnormal cell clusters |
| Arms | 2 | axon bundles split apart |
| CG31534 (retired record) | 1 | fewer cells |
| Lsp2 | 1 | fewer cells |
| RunxB | 1 | reduced axon outgrowth |
